Measurements as given in publication PMC2654154, “Molecular Basis of Filamin A-FilGAP Interaction and Its Impairment in Congenital Disorders Associated with Filamin A Mutations” (PLoS ONE, 2009).
No constants are given. Whether binding was seen depends on the method and setting. For some of these results: Binding calls can cover weak binding; strength is not graded here. For some of these results: Tags and fused reporters may be left off the sequences shown.

T1: MBP-His-FilGAP 649–748 (human) (UniProt Q8N264)
T1 sequence: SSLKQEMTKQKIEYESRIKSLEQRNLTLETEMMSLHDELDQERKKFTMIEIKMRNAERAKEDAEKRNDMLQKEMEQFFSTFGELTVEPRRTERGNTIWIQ

B1: full-length FilGAP, purified from Sf9 insect cells (natural protein, human, UniProt Q8N264 1-748, looked up)
chain: MEENNDSTENPQQGQGRQNAIKCGWLRKQGGFVKTWHTRWFVLKGDQLYYFKDEDETKPLGTIFLPGNKVSEHPCNEENPGKFLFEVVPGGDRDRMTANHESYLLMASTQNDMEDWVKSIRRVIWGPFGGGIFGQKLEDTVRYEKRYGNRLAPMLVEQCVDFIRQRGLKEEGLFRLPGQANLVKELQDAFDCGEKPSFDSNTDVHTVASLLKLYLRELPEPVIPYAKYEDFLSCAKLLSKEEEAGVKELAKQVKSLPVVNYNLLKYICRFLDEVQSYSGVNKMSVQNLATVFGPNILRPKVEDPLTIMEGTVVVQQLMSVMISKHDCLFPKDAELQSKPQDGVSNNNEIQKKATMGQLQNKENNNTKDSPSRQCSWDKSESPQRSSMNNGSPTALSGSKTNSPKNSVHKLDVSRSPPLMVKKNPAFNKGSGIVTNGSFSSSNAEGLEKTQTTPNGSLQARRSSSLKVSGTKMGTHSVQNGTVRMGILNSDTLGNPTNVRNMSWLPNGYVTLRDNKQKEQAGELGQHNRLSTYDNVHQQFSMMNLDDKQSIDSATWSTSSCEISLPENSNSCRSSTTTCPEQDFFGGNFEDPVLDGPPQDDLSHPRDYESKSDHRSVGGRSSRATSSSDNSETFVGNSSSNHSALHSLVSSLKQEMTKQKIEYESRIKSLEQRNLTLETEMMSLHDELDQERKKFTMIEIKMRNAERAKEDAEKRNDMLQKEMEQFFSTFGELTVEPRRTERGNTIWIQ
notes: FilGAP, human, full length; Tag-free FilGAP was prepared from His-FilGAP with TEV protease; also called Purified FilGAP; source: Sf9 cells, purified (Ni-NTA)

Tests used:
[1] = target: T1, MBP-His-FilGAP 649–748 (human); test: pull-down; amylose resin coated with various concentrations of MBP-FilGAP 649–748; FLNa or its truncates in binding buffer, 1 h, 25°C; CBB or silver staining or immunoblot; both purified
[2] = target: GST-IgFLNa20-24 A2461T (human); test: pull-down; increasing amounts of GST-IgFLNa20-24 on glutathione beads; full-length FilGAP input 10 nM constant; immunoblot for FilGAP; both purified
[3] = target: GST-IgFLNa20-24 D2467E (human); test: as above
[4] = target: GST-IgFLNa20-24 Y2483H (human); test: as above
[5] = target: GST-IgFLNa20-24, wild type (human); test: as above

Molecule | binding [1] | binding [2] | binding [3] | binding [4] | binding [5]
IgFLNa23-24 (human) (domain or fragment) | binds |  |  |  | 
IgFLNc23-24 (domain or fragment) | no binding (tested: 0.2 uM repeats 23–24) |  |  |  | 
IgFLNb23-24 (domain or fragment) | no binding (tested: 0.2 uM repeats 23–24) |  |  |  | 
B1 |  | no binding (tested: 10 nM FilGAP input) | binds | no binding (tested: 10 nM FilGAP input) | binds
